Where a chain is given by its changes, count along the chain named. In names and notes the source's numbering stands. Results are given in words; binding and its absence hold for the method and conditions named. For some assays here: In cells and extracts the contact can be indirect. Some results given as binding are weak or reduced against the parent protein; the word gives no strength. Sequences can lack the tags named with a protein.

By UniProt entry, the sequences of proteins in these tests, tags left out.
UniProt Q9UI95: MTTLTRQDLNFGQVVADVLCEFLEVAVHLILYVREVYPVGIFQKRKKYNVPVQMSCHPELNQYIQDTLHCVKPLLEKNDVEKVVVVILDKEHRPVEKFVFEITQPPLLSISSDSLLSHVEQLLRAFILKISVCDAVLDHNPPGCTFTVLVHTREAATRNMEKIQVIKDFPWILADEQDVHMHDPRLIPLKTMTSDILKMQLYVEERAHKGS

Binding data for 3 molecules are collected here from paper doi:10.1101/2023.01.12.523815.

The target in experiment [1] is T1, FLAG-SHLD3 (full-length) (human) (UniProt Q6ZNX1).
T1 sequence: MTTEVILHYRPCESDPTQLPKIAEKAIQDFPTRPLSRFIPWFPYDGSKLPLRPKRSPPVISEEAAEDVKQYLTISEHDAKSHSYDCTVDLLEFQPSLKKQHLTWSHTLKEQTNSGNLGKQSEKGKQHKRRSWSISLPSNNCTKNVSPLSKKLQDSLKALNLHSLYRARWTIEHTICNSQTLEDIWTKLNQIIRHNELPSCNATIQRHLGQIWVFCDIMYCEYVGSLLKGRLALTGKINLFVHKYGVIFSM
The experiment is described as follows: co-IP + pull-down.

Experiment [2] has as its target T2, FLAG-SHLD3^C (residues 126-250) (human) (UniProt Q6ZNX1).
T2 sequence: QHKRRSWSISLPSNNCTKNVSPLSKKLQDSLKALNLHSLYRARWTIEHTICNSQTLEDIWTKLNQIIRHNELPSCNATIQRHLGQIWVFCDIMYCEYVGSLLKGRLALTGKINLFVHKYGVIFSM
The experiment is described as follows: co-IP + pull-down.

Experiment [3] deals with T3, FLAG-SHLD3^N (residues 2-125) (human) (UniProt Q6ZNX1).
T3 sequence: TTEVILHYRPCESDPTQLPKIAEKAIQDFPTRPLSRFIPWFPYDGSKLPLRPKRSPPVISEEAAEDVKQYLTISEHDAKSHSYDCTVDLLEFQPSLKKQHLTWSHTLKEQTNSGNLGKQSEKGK
The experiment is described as follows: co-IP + pull-down.

In experiment [4] the target is T4, mCherry-LacR-RIF1^N R36D (human) (UniProt Q5UIP0).
T4 sequence: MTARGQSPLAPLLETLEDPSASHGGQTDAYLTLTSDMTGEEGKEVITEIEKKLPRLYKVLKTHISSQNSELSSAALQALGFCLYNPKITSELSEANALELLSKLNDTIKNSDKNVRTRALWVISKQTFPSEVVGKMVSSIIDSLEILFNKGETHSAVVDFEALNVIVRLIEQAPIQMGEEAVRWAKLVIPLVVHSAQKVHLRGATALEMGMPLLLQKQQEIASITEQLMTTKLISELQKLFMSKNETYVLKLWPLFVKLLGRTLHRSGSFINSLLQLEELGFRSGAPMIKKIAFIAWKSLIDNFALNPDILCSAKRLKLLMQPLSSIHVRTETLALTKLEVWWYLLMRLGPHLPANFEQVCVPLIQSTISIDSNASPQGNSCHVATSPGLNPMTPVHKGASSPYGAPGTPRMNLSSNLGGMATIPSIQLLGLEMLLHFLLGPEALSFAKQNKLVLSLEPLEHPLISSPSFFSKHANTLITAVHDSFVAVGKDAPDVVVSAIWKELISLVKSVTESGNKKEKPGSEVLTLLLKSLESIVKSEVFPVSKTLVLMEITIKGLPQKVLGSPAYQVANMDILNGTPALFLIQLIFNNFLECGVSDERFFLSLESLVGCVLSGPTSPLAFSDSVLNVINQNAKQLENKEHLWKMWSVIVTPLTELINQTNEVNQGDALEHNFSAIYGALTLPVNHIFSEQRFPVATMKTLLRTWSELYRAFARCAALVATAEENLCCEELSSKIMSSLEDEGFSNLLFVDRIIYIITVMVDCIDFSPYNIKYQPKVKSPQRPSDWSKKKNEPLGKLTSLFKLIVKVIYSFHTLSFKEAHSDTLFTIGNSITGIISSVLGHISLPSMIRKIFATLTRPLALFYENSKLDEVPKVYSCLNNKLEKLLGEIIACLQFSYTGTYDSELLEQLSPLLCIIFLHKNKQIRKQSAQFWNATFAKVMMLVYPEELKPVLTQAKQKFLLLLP
The experiment is described as follows: LacR/LacO chromatin recruitment assay.

Experiment [5] has as its target T5, mCherry-LacR-RIF1 (1-567) (human) (UniProt Q5UIP0).
T5 sequence: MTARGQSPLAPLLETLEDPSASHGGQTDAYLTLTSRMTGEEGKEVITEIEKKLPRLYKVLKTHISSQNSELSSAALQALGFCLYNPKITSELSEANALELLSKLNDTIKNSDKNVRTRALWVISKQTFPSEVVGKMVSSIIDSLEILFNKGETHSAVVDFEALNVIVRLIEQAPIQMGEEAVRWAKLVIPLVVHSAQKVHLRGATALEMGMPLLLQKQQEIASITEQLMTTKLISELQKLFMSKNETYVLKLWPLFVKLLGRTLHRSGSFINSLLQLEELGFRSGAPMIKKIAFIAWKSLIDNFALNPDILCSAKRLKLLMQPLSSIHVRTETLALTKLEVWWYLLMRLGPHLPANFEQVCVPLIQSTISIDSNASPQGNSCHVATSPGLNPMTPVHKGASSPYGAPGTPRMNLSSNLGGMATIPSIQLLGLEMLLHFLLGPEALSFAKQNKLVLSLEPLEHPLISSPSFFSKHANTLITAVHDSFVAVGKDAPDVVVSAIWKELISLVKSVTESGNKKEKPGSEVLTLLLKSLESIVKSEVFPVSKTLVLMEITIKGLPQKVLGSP
Put plainly: LacR/LacO chromatin recruitment assay.

Experiment [6] addresses T6, mCherry-LacR-RIF1 (174-567) (human) (UniProt Q5UIP0).
T6 sequence: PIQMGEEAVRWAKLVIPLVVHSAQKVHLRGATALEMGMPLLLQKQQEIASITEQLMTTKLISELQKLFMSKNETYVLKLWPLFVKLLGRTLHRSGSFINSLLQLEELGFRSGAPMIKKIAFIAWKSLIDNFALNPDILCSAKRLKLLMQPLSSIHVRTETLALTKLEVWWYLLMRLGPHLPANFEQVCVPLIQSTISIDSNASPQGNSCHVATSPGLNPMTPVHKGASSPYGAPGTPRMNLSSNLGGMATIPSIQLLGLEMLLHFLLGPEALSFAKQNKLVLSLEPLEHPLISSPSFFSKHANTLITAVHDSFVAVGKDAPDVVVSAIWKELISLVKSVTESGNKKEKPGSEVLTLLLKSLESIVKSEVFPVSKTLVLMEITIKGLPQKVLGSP
Put plainly: LacR/LacO chromatin recruitment assay.

Experiment [7] has as its target T7, mCherry-LacR-RIF1^N (residues 1-967) (human) (UniProt Q5UIP0).
T7 sequence: T4 sequence with D36R
Put plainly: LacR/LacO chromatin recruitment assay.

The target of experiment [8] is T8, mCherry-LacR-RIF1^N (residues 1-967) E70A (human) (UniProt Q5UIP0).
T8 sequence: T4 sequence with D36R, E70A
The experiment is described as follows: LacR/LacO chromatin recruitment assay.

Turning to 6xHis-REV7 (from UniProt Q9UI95 1-211), the binding entry is listed as “binds” in experiment [1], “no binding” in experiment [2] and “binds” in experiment [3].

B1: eGFP-SHLD3^C D216R (domain or fragment, UniProt Q6ZNX1 126-250)
chain: T2 sequence with D91R
In the case of B1, in experiment [4], the binding result was “binds”.

B2: eGFP-SHLD3 (residues 2-250) (protein, UniProt Q6ZNX1 2-250)
chain: TTEVILHYRPCESDPTQLPKIAEKAIQDFPTRPLSRFIPWFPYDGSKLPLRPKRSPPVISEEAAEDVKQYLTISEHDAKSHSYDCTVDLLEFQPSLKKQHLTWSHTLKEQTNSGNLGKQSEKGKQHKRRSWSISLPSNNCTKNVSPLSKKLQDSLKALNLHSLYRARWTIEHTICNSQTLEDIWTKLNQIIRHNELPSCNATIQRHLGQIWVFCDIMYCEYVGSLLKGRLALTGKINLFVHKYGVIFSM
Take B2: the binding result in experiment [5] is recorded as “binds”; in experiment [6], “no binding”; in experiment [7] it was “binds”; in experiment [8] it was “binds”.
